Laboratory results taken from article doi:10.1101/2020.01.30.926840.
Like-named read-outs stand apart in the source and are kept apart here. Results are given in words; binding and its absence hold for the method and conditions named. In cells and extracts the contact can be indirect. A yes stands for co-enrichment or nearness to the bait. Other partners may have been found. For some assays here: A no says only that the protein was not detected with the bait.

Sequences of proteins named here, by UniProt entry; tags and fusion partners are left off.
UniProt P61026: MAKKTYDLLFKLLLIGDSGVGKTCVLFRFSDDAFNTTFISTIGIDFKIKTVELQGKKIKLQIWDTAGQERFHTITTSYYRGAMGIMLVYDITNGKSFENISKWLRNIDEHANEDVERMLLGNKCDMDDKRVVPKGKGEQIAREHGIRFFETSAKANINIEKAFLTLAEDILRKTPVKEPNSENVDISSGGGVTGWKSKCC
UniProt Q99MS7: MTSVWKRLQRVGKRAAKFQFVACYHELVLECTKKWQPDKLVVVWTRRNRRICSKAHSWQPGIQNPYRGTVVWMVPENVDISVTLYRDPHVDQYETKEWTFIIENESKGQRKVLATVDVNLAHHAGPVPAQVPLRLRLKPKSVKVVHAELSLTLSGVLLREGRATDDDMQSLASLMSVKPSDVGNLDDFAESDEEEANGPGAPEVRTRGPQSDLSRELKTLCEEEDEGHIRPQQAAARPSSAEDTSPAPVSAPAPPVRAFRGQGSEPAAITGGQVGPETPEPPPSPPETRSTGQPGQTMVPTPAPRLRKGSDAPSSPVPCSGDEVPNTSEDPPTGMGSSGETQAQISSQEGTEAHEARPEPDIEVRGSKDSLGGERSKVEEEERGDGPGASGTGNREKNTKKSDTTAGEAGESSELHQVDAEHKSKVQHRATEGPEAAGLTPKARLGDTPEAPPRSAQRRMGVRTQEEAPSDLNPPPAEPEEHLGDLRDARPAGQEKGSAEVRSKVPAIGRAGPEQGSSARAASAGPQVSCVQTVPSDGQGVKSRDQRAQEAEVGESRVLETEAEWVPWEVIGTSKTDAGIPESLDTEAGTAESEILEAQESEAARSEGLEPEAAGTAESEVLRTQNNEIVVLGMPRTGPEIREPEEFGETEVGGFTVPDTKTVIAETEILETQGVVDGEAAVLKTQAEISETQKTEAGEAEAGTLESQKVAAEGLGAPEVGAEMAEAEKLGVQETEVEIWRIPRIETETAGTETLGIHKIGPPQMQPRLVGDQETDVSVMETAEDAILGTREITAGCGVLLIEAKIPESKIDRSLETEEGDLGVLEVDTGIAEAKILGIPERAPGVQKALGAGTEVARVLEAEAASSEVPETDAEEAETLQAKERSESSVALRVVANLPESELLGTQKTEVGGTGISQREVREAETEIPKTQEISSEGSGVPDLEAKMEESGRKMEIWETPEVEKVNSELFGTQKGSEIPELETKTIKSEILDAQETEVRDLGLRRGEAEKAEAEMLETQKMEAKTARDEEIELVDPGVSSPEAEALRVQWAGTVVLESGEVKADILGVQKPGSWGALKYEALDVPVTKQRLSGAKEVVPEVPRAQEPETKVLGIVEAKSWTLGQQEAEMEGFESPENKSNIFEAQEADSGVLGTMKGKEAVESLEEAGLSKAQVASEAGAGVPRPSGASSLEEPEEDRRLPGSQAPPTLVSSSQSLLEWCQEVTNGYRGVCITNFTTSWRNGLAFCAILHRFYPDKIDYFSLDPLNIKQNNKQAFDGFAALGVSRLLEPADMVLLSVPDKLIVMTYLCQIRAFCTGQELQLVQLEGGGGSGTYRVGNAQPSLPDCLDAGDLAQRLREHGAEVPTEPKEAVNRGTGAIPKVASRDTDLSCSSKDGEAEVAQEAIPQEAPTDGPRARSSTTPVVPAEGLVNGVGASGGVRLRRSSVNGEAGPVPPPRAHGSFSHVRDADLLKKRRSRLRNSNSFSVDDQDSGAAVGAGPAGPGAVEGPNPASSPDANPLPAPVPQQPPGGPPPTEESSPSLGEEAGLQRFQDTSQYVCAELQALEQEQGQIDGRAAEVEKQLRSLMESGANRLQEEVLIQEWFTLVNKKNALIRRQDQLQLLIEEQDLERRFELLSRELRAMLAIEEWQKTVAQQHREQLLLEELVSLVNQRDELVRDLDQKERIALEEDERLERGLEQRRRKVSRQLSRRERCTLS

Tests used:
Flag-Rab10 (Raw264.7) [1] = target: Flag-Rab10 (Raw264.7) (UniProt P61026); test: affinity purification with mass spectrometry
Flag-Rab10 (Raw264.7) [2] = target: Flag-Rab10 (Raw264.7) (UniProt P61026); test: affinity purification with mass spectrometry; remark: listed apart in the source

binding (Flag-Rab10 (Raw264.7) [1]): no binding (only with 2 mM GDP)
binding (Flag-Rab10 (Raw264.7) [2]): binds
Substance: EH domain-binding protein 1-like protein 1 (from UniProt Q99MS7 1-1716)
